# Laboratory results published in the supplement of paper PMC8728848.
# Some of the results follow.
# B1: Mermaid2 (Stilbonema majum) (protein)
# chain: MGSSHHHHHHSSGLVPRGSHMAASGWLRSPQGTVVKLYRRSLSWSKADEFCKDVDGRLVVDRTADMHLFLIKNVLKEKKSRVWVGLRRTAPHSRTWIWSDGTRQNEDDLNTNLWLRDEPNDAAGEEECALFMYSPWEKAWGLNDYLCRGGCRSYQFICEKGIR
# How the values were obtained:
# Assay in all cases: glycan array binding signal (z-score within array); higher = stronger binding
# Conditions in all cases: glycan notation: IUPAC condensed, linker removed
# Gal(b1-2)Gal = biological target: Gal(b1-2)Gal
# Summary of the method: (§1)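 The Consortium for Functional Glycomics database supplied 3228 glycan arrays, of which those lacking an available protein sequence were dropped. The binding signal, a within-array Z-score, was averaged across arrays of the same protein sequence and across linkers. Negative scores can be read as non-binding.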
# Gal(b1-3)Gal = biological target: Gal(b1-3)Gal
# Summary of the method: as §1
# Gal(b1-3)Gal(b1-4)GlcNAc = biological target: Gal(b1-3)Gal(b1-4)GlcNAc
# Summary of the method: as §1
# Gal(b1-3)GalNAc = biological target: Gal(b1-3)GalNAc
# Summary of the method: as §1
# [1] = biological target: Gal(b1-3)GalNAc(a1-3)[Fuc(a1-2)]Gal(b1-4)Glc
# Summary of the method: as §1
# [2] = biological target: Gal(b1-3)GalNAc(a1-3)[Fuc(a1-2)]Gal(b1-4)GlcNAc
# Summary of the method: as §1
# Gal(b1-3)GalNAc(b1-3)Gal = biological target: Gal(b1-3)GalNAc(b1-3)Gal
# Summary of the method: as §1
# [3] = biological target: Gal(b1-3)GalNAc(b1-3)Gal(a1-4)Gal(b1-4)Glc
# Summary of the method: as §1
# [4] = biological target: Gal(b1-3)GalNAc(b1-4)Gal(b1-4)Glc
# Summary of the method: as §1
# [5] = biological target: Gal(b1-3)GalNAc(b1-4)[Neu5Ac(a2-3)]Gal(b1-4)Glc
# Summary of the method: as §1
# Gal(b1-3)GlcNAc = biological target: Gal(b1-3)GlcNAc
# Summary of the method: as §1
# [6] = biological target: Gal(b1-3)GlcNAc(a1-3)Gal(b1-4)GlcNAc
# Summary of the method: as §1
# [7] = biological target: Gal(b1-3)GlcNAc(a1-6)Gal(b1-4)GlcNAc
# Summary of the method: as §1
# Gal(b1-3)GlcNAc(b1-2)Man = biological target: Gal(b1-3)GlcNAc(b1-2)Man
# Summary of the method: as §1
# [8] = biological target: Gal(b1-3)GlcNAc(b1-2)Man(a1-3)[Gal(b1-3)GlcNAc(b1-2)Man(a1-6)]Man(b1-4)GlcNAc(b1-4)GlcNAc
# Summary of the method: as §1
# [9] = biological target: Gal(b1-3)GlcNAc(b1-2)Man(a1-3)[Gal(b1-3)GlcNAc(b1-2)Man(a1-6)]Man(b1-4)GlcNAc(b1-4)[Fuc(a1-6)]GlcNAc
# Summary of the method: as §1
# [10] = biological target: Gal(b1-3)GlcNAc(b1-2)Man(a1-3)[GlcNAc(b1-4)][Gal(b1-3)GlcNAc(b1-2)Man(a1-6)]Man(b1-4)GlcNAc(b1-4)GlcNAc
# Summary of the method: as §1
# [11] = biological target: Gal(b1-3)GlcNAc(b1-2)[Gal(b1-3)GlcNAc(b1-6)]Man(a1-6)[Gal(b1-3)GlcNAc(b1-2)Man(a1-3)]Man(b1-4)GlcNAc(b1-4)GlcNAc
# Summary of the method: as §1
# [12] = biological target: Gal(b1-3)GlcNAc(b1-3)Gal(b1-3)GlcNAc
# Summary of the method: as §1
# [13] = biological target: Gal(b1-3)GlcNAc(b1-3)Gal(b1-4)Glc
# Summary of the method: as §1
# [14] = biological target: Gal(b1-3)GlcNAc(b1-3)Gal(b1-4)GlcNAc
# Summary of the method: as §1
# [15] = biological target: Gal(b1-3)GlcNAc(b1-3)Gal(b1-4)GlcNAc(b1-2)Man(a1-3)[Gal(b1-3)GlcNAc(b1-3)Gal(b1-4)GlcNAc(b1-2)Man(a1-6)]Man(b1-4)GlcNAc(b1-4)GlcNAc
# Summary of the method: as §1
# [16] = biological target: Gal(b1-3)GlcNAc(b1-3)Gal(b1-4)GlcNAc(b1-2)[Gal(b1-3)GlcNAc(b1-3)Gal(b1-4)GlcNAc(b1-6)]Man(a1-6)[Gal(b1-3)GlcNAc(b1-3)Gal(b1-4)GlcNAc(b1-2)Man(a1-3)]Man(b1-4)GlcNAc(b1-4)[Fuc(a1-6)]GlcNAc
# Summary of the method: as §1
# [17] = biological target: Gal(b1-3)GlcNAc(b1-3)Gal(b1-4)GlcNAc(b1-3)Gal(b1-4)GlcNAc(b1-2)[Gal(b1-3)GlcNAc(b1-3)Gal(b1-4)GlcNAc(b1-3)Gal(b1-4)GlcNAc(b1-6)]Man(a1-6)[Gal(b1-3)GlcNAc(b1-3)Gal(b1-4)GlcNAc(b1-3)Gal(b1-4)GlcNAc(b1-2)Man(a1-3)]Man(b1-4)GlcNAc(b1-4)[Fuc(a1-6)]GlcNAc
# Summary of the method: as §1
# [18] = biological target: Gal(b1-3)GlcNAc(b1-3)Gal(b1-4)GlcNAc(b1-6)[Gal(b1-3)GlcNAc(b1-3)]Gal(b1-4)Glc
# Summary of the method: as §1
# [19] = biological target: Gal(b1-3)GlcNAc(b1-3)Gal(b1-4)[Fuc(a1-3)]GlcNAc
# Summary of the method: as §1
# [20] = biological target: Gal(b1-3)GlcNAc(b1-3)Gal(b1-4)[Fuc(a1-3)]GlcNAc(b1-6)[Gal(b1-3)GlcNAc(b1-3)]Gal(b1-4)Glc
# Summary of the method: as §1
# [21] = biological target: Gal(b1-3)GlcNAc(b1-3)GalNAc
# Summary of the method: as §1
# [22] = biological target: Gal(b1-3)GlcNAc(b1-6)Gal(b1-4)GlcNAc
# Summary of the method: as §1
# [23] = biological target: Gal(b1-3)GlcNAc(b1-6)GalNAc
# Summary of the method: as §1
# [24] = biological target: Gal(b1-3)GlcNAc(b1-6)[Gal(b1-3)]GalNAc
# Summary of the method: as §1
# Gal(b1-3)GlcNAc6S = biological target: Gal(b1-3)GlcNAc6S
# Summary of the method: as §1
# [25] = biological target: Gal(b1-3)[Fuc(a1-4)]GlcNAc
# Summary of the method: as §1
# [26] = biological target: Gal(b1-3)[Fuc(a1-4)]GlcNAc(b1-2)Man
# Summary of the method: as §1
# [27] = biological target: Gal(b1-3)[Fuc(a1-4)]GlcNAc(b1-2)Man(a1-3)[Gal(b1-3)[Fuc(a1-4)]GlcNAc(b1-2)Man(a1-6)]Man(b1-4)GlcNAc(b1-4)[Fuc(a1-6)]GlcNAc
# Summary of the method: as §1
# [28] = biological target: Gal(b1-3)[Fuc(a1-4)]GlcNAc(b1-3)Gal(b1-3)[Fuc(a1-4)]GlcNAc
# Summary of the method: as §1
# [29] = biological target: Gal(b1-3)[Fuc(a1-4)]GlcNAc(b1-3)Gal(b1-4)[Fuc(a1-3)]GlcNAc
# Summary of the method: as §1
# [30] = biological target: Gal(b1-3)[Fuc(a1-4)]GlcNAc(b1-6)GalNAc
# Summary of the method: as §1
# [31] = biological target: Gal(b1-3)[GlcNAc(b1-6)]GalNAc
# Summary of the method: as §1
# [32] = biological target: Gal(b1-3)[Neu5Ac(a2-6)]GalNAc
# Summary of the method: as §1
# [33] = biological target: Gal(b1-3)[Neu5Ac(a2-6)]GlcNAc(b1-4)Gal(b1-4)Glc
# Summary of the method: as §1
# [34] = biological target: Gal(b1-3)[Neu5Ac(b2-6)]GalNAc
# Summary of the method: as §1
# Gal(b1-4)Gal = biological target: Gal(b1-4)Gal
# Summary of the method: as §1
# [35] = biological target: Gal(b1-4)GalNAc(a1-3)[Fuc(a1-2)]Gal(b1-4)GlcNAc
# Summary of the method: as §1
# [36] = biological target: Gal(b1-4)GalNAc(b1-3)[Fuc(a1-2)]Gal(b1-4)GlcNAc
# Summary of the method: as §1
binder,measurement,setting,value
B1,glycan array binding signal (z-score),Gal(b1-2)Gal,-0.539
same,glycan array binding signal (z-score),Gal(b1-3)Gal,0.318
same,glycan array binding signal (z-score),Gal(b1-3)Gal(b1-4)GlcNAc,0.038
same,glycan array binding signal (z-score),Gal(b1-3)GalNAc,1.35
same,glycan array binding signal (z-score),[1],3.31
same,glycan array binding signal (z-score),[2],2.24
same,glycan array binding signal (z-score),Gal(b1-3)GalNAc(b1-3)Gal,-0.208
same,glycan array binding signal (z-score),[3],-0.881
same,glycan array binding signal (z-score),[4],-0.715
same,glycan array binding signal (z-score),[5],-0.572
same,glycan array binding signal (z-score),Gal(b1-3)GlcNAc,0.006
same,glycan array binding signal (z-score),[6],-0.546
same,glycan array binding signal (z-score),[7],0.332
same,glycan array binding signal (z-score),Gal(b1-3)GlcNAc(b1-2)Man,0.106
same,glycan array binding signal (z-score),[8],-0.704
same,glycan array binding signal (z-score),[9],0.025
same,glycan array binding signal (z-score),[10],0.527
same,glycan array binding signal (z-score),[11],0.323
same,glycan array binding signal (z-score),[12],-0.44
same,glycan array binding signal (z-score),[13],-0.781
same,glycan array binding signal (z-score),[14],-0.423
same,glycan array binding signal (z-score),[15],-0.188
same,glycan array binding signal (z-score),[16],0.627
same,glycan array binding signal (z-score),[17],4.69
same,glycan array binding signal (z-score),[18],-0.056
same,glycan array binding signal (z-score),[19],-0.471
same,glycan array binding signal (z-score),[20],-0.521
same,glycan array binding signal (z-score),[21],-0.356
same,glycan array binding signal (z-score),[22],-0.554
same,glycan array binding signal (z-score),[23],-0.967
same,glycan array binding signal (z-score),[24],0.736
same,glycan array binding signal (z-score),Gal(b1-3)GlcNAc6S,-0.149
same,glycan array binding signal (z-score),[25],-0.238
same,glycan array binding signal (z-score),[26],0.139
same,glycan array binding signal (z-score),[27],1.91
same,glycan array binding signal (z-score),[28],-0.667
same,glycan array binding signal (z-score),[29],-0.152
same,glycan array binding signal (z-score),[30],0.486
same,glycan array binding signal (z-score),[31],-0.348
same,glycan array binding signal (z-score),[32],-0.813
same,glycan array binding signal (z-score),[33],-0.72
same,glycan array binding signal (z-score),[34],-0.862
same,glycan array binding signal (z-score),Gal(b1-4)Gal,6.71
same,glycan array binding signal (z-score),[35],1.1
same,glycan array binding signal (z-score),[36],0.467

# Quoted from the entries so far for reference:
binder,measurement,setting,value
B1,glycan array binding signal (z-score),Gal(b1-3)Gal(b1-4)GlcNAc,0.038
same,glycan array binding signal (z-score),Gal(b1-3)GalNAc,1.35
same,glycan array binding signal (z-score),[1],3.31
same,glycan array binding signal (z-score),[2],2.24
same,glycan array binding signal (z-score),Gal(b1-3)GalNAc(b1-3)Gal,-0.208
same,glycan array binding signal (z-score),[3],-0.881
same,glycan array binding signal (z-score),[4],-0.715
same,glycan array binding signal (z-score),[5],-0.572
same,glycan array binding signal (z-score),Gal(b1-3)GlcNAc,0.006
same,glycan array binding signal (z-score),[6],-0.546
same,glycan array binding signal (z-score),[7],0.332
